What was measured:
Format in all cases: cell-based, human
HEK293 cells = experiment: MTT cell viability assay, noncancerous HEK293 cells, 5 days treatment; details: MTT dose–response curve
Description: (§1) Dose–response curves for each of the pyrazolo[1,5‐α]pyrimidinones were performed to determine the cytotoxic effect of the compounds on a cancerous, U‐251 MG cell line and a noncancerous, HEK293 cell line. The synthesized pyrazolopyrimidinones were dissolved in DMSO (Merck) to obtain a stock solution which was stored at −20 °C. […] U‐251 MG and HEK293 cells were seeded at a density of 2 x 10^3 cells per well (100 μL) in a 96‐well plate (Sarstedt) and incubated for 24 h prior to each treatment to allow for cell adhesion. The stock solution was diluted in media to working concentrations of 100, 75, 50, 25, 10, 5, and 0.1 μM. Media on the seeded cells was then replaced with the working concentrations of the compound or the controls in a 96‐well plate (100 μL). The treated plate was incubated at 37 °C in the humidified incubator for 5 days. Cell viability was assessed after 5 days using the MTT assay. Dose–response curves were then plotted relative to the positive control whereby cells were treated 20% DMSO and a negative control whereby cells were maintained in fresh DMEM.
(§2) To determine the extent of the cytotoxic effect of the pyrazolopyrimidinone on each cell line, the cell viability at each working concentration was determined via the MTT assay (Merck). The working solution of MTT used was 5 mg MTT per 1 ml of PBS diluted in 9 ml of media. After 5 days of incubation, the treatment was removed from each of the wells and replaced with 100 μL of fresh MTT solution. The plate was then incubated for 3 h at 37 °C in a humidified incubator to allow the reduction of the yellow tetrazolium salt to purple formazan crystals. After the incubation, the MTT solution was removed from the wells and replaced with 100 μL of DMSO for 15 min to dissolve the formazan crystals. The absorbance was read at 570 nm using a spectrophotometric microplate reader (Thermo Fisher Scientific).
(§3) Each of the experiments was performed at least three independent times, with a minimum of six technical replicates per experiment. Statistical analysis was carried out using GraphPad Prism version 8.0.0 (GraphPad Softwares, Inc.). Curve fitting and the IC50 values were obtained through the dose–response curves using nonlinear regression. To determine if the dose–response curves were statistically distinct and not overlapping, extra sum‐of‐squares F‐test was used, and a p‐value was obtained. The effect of compound treatment on both cell lines was statistically compared via two‐way ANOVA with Tukey's post‐test. The CytExpert (Beckman Coulter) software was used for flow cytometry analysis. Graphs represent the % dead cells whereby the total number of dead cells was divided by the total cell population. The statistical significance of the flow cytometry results was determined via one‐way analysis of variance (ANOVA) with Dunnett's T3 multiple comparison post‐test. Data is presented as the mean ± standard error of mean (SEM). Summary of results from statistical analysis reports p‐values as follows: ≥0.05 (ns), 0.01–0.05 (*), 0.001–0.01 (**), […], and <0.0001(****).

U‐251 MG cells = experiment: MTT cell viability assay, U‐251 MG glioblastoma cells, 5 days treatment; details: MTT dose–response curve
Description: as §1, §2, §3

[1] = test system: U‐251 MG and HEK293 cells; experiment: Statistical comparison of dose–response in U‐251 MG versus HEK293 (selectivity, HIT criteria); details: 95% CI of U‐251 MG and HEK293 IC50 not overlapping

Row | Compound | HEK293 Hillslope (HEK293 cells) | U‐251 MG Hillslope (U‐251 MG cells) | Difference in IC50 ranges‐Yes/No [1]
1 | O=c1cc(-c2cc(C(F)(F)F)cc(C(F)(F)F)c2)[nH]c2cc(-c3ccc(Br)cc3)nn12 [Compound 7] | −10.05 | −3.243 | –
2 | CC(C)c1cc2[nH]c(-c3ccccc3)cc(=O)n2n1 [Compound 2] | −1.375 | −1.273 | Yes
3 | O=c1cc(-c2cc(C(F)(F)F)cc(C(F)(F)F)c2)[nH]c2cc(-c3cccc(C(F)(F)F)c3)nn12 [Compound 20] | – | −4.045 | –
4 | O=c1cc(-c2ccccc2)[nH]c2cc(-c3ccccc3)nn12 [Compound 15] | −5.573 | −1.614 | –
5 | O=c1cc(-c2cc(C(F)(F)F)cc(C(F)(F)F)c2)[nH]c2cc(-c3ccccc3)nn12 [Compound 5] | −1.491 | −0.2984 | Yes
6 | CCc1cc(=O)n2nc(C(C)C)cc2[nH]1 [Compound 19] | – | −1.995 | –
7 | O=c1cc(-c2cc(C(F)(F)F)cc(C(F)(F)F)c2)[nH]c2cc(-c3ccccc3Br)nn12 [Compound 22] | −3.518 | −0.2934 | Yes
8 | CC(C)c1cc2[nH]c(C(C)C)cc(=O)n2n1 [Compound 18] | −0.5581 | −2.055 | –
9 | O=c1cc(-c2cc(C(F)(F)F)cc(C(F)(F)F)c2)[nH]c2cc(-c3cccc(Cl)c3)nn12 [Compound 12] | −4.056 | −0.8934 | No
10 | O=c1cc(-c2cc(C(F)(F)F)cc(C(F)(F)F)c2)[nH]c2cc(-c3cccc(Br)c3)nn12 [Compound 21, 5‐(3,5‐Bis(trifluoromethyl)phenyl)‐2‐(3‐bromophenyl)pyrazolo[1,5‐α]pyrimidin‐7(4¬H)‐one] | −1.907 | −0.3128 | Yes
11 | Cc1cc(C)cc(-c2cc(=O)n3nc(C(C)C)cc3[nH]2)c1 [Compound 3] | −1.114 | −0.5025 | No
12 | COc1ccc(-c2cc3[nH]c(-c4cc(C(F)(F)F)cc(C(F)(F)F)c4)cc(=O)n3n2)cc1 [Compound 11] | −4.056 | −0.9642 | No
13 | CC(C)c1cc2[nH]c(-c3cc(C(F)(F)F)cc(C(F)(F)F)c3)cc(=O)n2n1 [Compound 4] | −2.838 | −1.384 | Yes
14 | O=c1cc(-c2cc(C(F)(F)F)cc(C(F)(F)F)c2)[nH]c2cc(-c3ccc(Cl)cc3)nn12 [Compound 8] | −3.976 | −1.561 | Yes
15 | Cc1cc(=O)n2nc(C(C)C)cc2[nH]1 [Compound 1] | −0.4501 | −0.5490 | No
16 | O=c1cc(-c2cc(C(F)(F)F)cc(C(F)(F)F)c2)[nH]c2cc(-c3ccc(C(F)(F)F)cc3)nn12 [Compound 9] | −10.95 | −3.665 | Yes
17 | O=c1cc(-c2cc(C(F)(F)F)cc(C(F)(F)F)c2)[nH]c2cc(-c3cccc([N+](=O)[O-])c3)nn12 [Compound 23] | −6.753 | −1.177 | Yes
18 | O=c1cc(-c2cc(C(F)(F)F)cc(C(F)(F)F)c2)[nH]c2cc(-c3ccc([N+](=O)[O-])cc3)nn12 [Compound 10] | −4.962 | −3.232 | –
19 | CC(C)(C)c1cc2[nH]c(-c3ccccc3)cc(=O)n2n1 [Compound 17] | – | −5.735 | –
20 | O=c1cc(-c2cc(C(F)(F)F)cc(C(F)(F)F)c2)[nH]c2cc(-c3ccc(F)cc3)nn12 [Compound 6] | −7.075 | −5.948 | Yes
21 | Cc1cc(=O)n2nc(-c3ccccc3)cc2[nH]1 [Compound 14] | – | −1.263 | –
